Laboratory results: the supplement of paper PMC3353916
The data scatter; read single values as rough.

Tested on: Sindbis virus TE/5'2J-GFP
Experiment: percent infected (GFP+ in RFP+ ISG-expressing cells); higher = more infection (less antiviral activity)
Settings: experiment: primary screen (single well)

| Sequence | percent infected (BHK/HA-Zeo (control)) | percent infected (BHK/NZAP-Zeo (ZAP)) |
| --- | --- | --- |
| MARPDPSAPPSLLLLLLAQLVGRAAAASKAPVCQEITVPMCRGIGYNLTHMPNQFNHDTQDEAGLEVHQFWPLVEIQCSPDLRFFLCSMYTPICLPDYHKPLPPCRSVCERAKAGCSPLMRQYGFAWPERMSCDRLPVLGRDAEVLCMDYNRSEATTAPPRPFPAKPTLPGPPGAPASGGECPAGGPFVCKCREPFVPILKESHPLYNKVRTGQVPNCAVPCYQPSFSADERTFATFWIGLWSVLCFISTSTTVATFLIDMERFRYPERPIIFLSACYLCVSLGFLVRLVVGHASVACSREHNHIHYETTGPALCTIVFLLVYFFGMASSIWWVILSLTWFLAAGMKWGNEAIAGYAQYFHLAAWLIPSVKSITALALSSVDGDPVAGICYVGNQNLNSLRGFVLGPLVLYLLVGTLFLLAGFVSLFRIRSVIKQGGTKTDKLEKLMIRIGIFTLLYTVPASIVVACYLYEQHYRESWEAALTCACPGHDTGQPRAKPEYWVLMLKYFMCLVVGITSGVWIWSGKTVESWRRFTSRCCCRPRRGHKSGGAMAAGDYPEASAALTGRTGPPGPAATYHKQVSLSHV [C2orf31] | 92.4% |  |
| MASEIHMTGPMCLIENTNGRLMANPEALKILSAITQPMVVVAIVGLYRTGKSYLMNKLAGKKKGFSLGSTVQSHTKGIWMWCVPHPKKPGHILVLLDTEGLGDVEKGDNQNDSWIFALAVLLSSTFVYNSIGTINQQAMDQLYYVTELTHRIRSKSSPDENENEVEDSADFVSFFPDFVWTLRDFSLDLEADGQPLTPDEYLTYSLKLKKGTSQKDETFNLPRLCIRKFFPKKKCFVFDRPVHRRKLAQLEKLQDEELDPEFVQQVADFCSYIFSNSKTKTLSGGIQVNGPRLESLVLTYVNAISSGDLPCMENAVLALAQIENSAAVQKAIAHYEQQMGQKVQLPTETLQELLDLHRDSEREAIEVFIRSSFKDVDHLFQKELAAQLEKKRDDFCKQNQEASSDRCSALLQVIFSPLEEEVKAGIYSKPGGYRLFVQKLQDLKKKYYEEPRKGIQAEEILQTYLKSKESMTDAILQTDQTLTEKEKEIEVERVKAESAQASAKMLQEMQRKNEQMMEQKERSYQEHLKQLTEKMENDRVQLLKEQERTLALKLQEQEQLLKEGFQKESRIMKNEIQDLQTKMRRRKACTIS [GBP1] | 95.1% | 89.2% |
| MASGRARCTRKLRNWVVEQVESGQFPGVCWDDTAKTMFRIPWKHAGKQDFREDQDAAFFKAWAIFKGKYKEGDTGGPAVWKTRLRCALNKSSEFKEVPERGRMDVAEPYKVYQLLPPGIVSGQPGTQKVPSKRQHSSVSSERKEEEDAMQNCTLSPSVLQDSLNNEEEGASGGAVHSDIGSSSSSSSPEPQEVTDTTEAPFQGDQRSLEFLLPPEPDYSLLLTFIYNGRVVGEAQVQSLDCRLVAEPSGSESSMEQVLFPKPGPLEPTQRLLSQLERGILVASNPRGLFVQRLCPIPISWNAPQAPPGPGPHLLPSNECVELFRTAYFCRDLVRYFQGLGPPPKFQVTLNFWEESHGSSHTPQNLITVKMEQAFARYLLEQTPEQQAAILSLV [IRF9] | 82.8% | 74.3% |
| MASPHQEPKPGDLIEIFRLGYEHWALYIGDGYVIHLAPPSEYPGAGSSSVFSVLSNSAEVKRERLEDVVGGCCYRVNNSLDHEYQPRPVEVIISSAKEMVGQKMKYSIVSRNCEHFVTQLRYGKSRCKQVEKAKVEVGVATALGILVVAGCSFAIRRYQKKATA [RARRES3] | 98.6% | 97.2% |
| MASPRASRWPPPLLLLLLPLLLLPPAAPGTRDPPPSPARRALSLAPLAGAGLELQLERRPEREPPPTPPRERRGPATPGPSYRAPEPGAATQRGPSGRAPRGGSADAAWKHWPESNTEAHVENITFYQNQEDFSTVSSKEGVMVQTSGKSHAASDAPENLTLLAETADARGRSGSSSRTNFTILPVGYSLEIATALTSQSGNLASESLHLPSSSSEFDERIAAFQTKSGTASEMGTERAMGLSEEWTVHSQEATTSAWSPSFLPALEMGELTTPSRKRNSSGPDLSWLHFYRTAASSPLLDLSSSSESTEKLNNSTGLQSSSVSQTKTMHVATVFTDGGPRTLRSLTVSLGPVSKTEGFPKDSRIATTSSSVLLSPSAVESRRNSRVTGNPGDEEFIEPSTENEFGLTSLRWQNDSPTFGEHQLASSSEVQNGSPMSQTETVSRSVAPMRGGEITAHWLLTNSTTSADVTGSSASYPEGVNASVLTQFSDSTVQSGGSHTALGDRSYSESSSTSSSESLNSSAPRGERSIAGISYGQVRGTAIEQRTSSDHTDHTYLSSTFTKGERALLSITDNSSSSDIVESSTSYIKISNSSHSEYSSFFHAQTERSNISSYDGEYAQPSTESPVLHTSNLPSYTPTINMPNTSVVLDTDAEFVSDSSSSSSSSSSSSSSGPPLPLPSVSQSHHLFSSILPSTRASVHLLKSTSDASTPWSSSPSPLPVSLTTSTSAPLSVSQTTLPQSSSTPVLPRARETPVTSFQTSTMTSFMTMLHSSQTADLKSQSTPHQEKVITESKSPSLVSLPTESTKAVTTNSPLPPSLTESSTEQTLPATSTNLAQMSPTFTTTILKTSQPLMTTPGTLSSTASLVTGPIAVQTTAGKQLSLTHPEILVPQISTEGGISTERNRVIVDATTGLIPLTSVPTSAKEMTTKLGVTAEYSPASRSLGTSPSPQTTVVSTAEDLAPKSATFAVQSSTQSPTTVSSSASVNSCAVNPCLHNGECVADNTSRGYHCRCPPSWQGDDCSVDVNECLSNPCPSTAMCNNTQGSFICKCPVGYQLEKGICNLVRTFVTEFKLKRTFLNTTVEKHSDLQEVENEITKTLNMCFSALPSYIRSTVHASRESNAVVISLQTTFSLASNVTLFDLADRMQKCVNSCKSSAEVCQLLGSQRRIFRAGSLCKRKSPECDKDTSICTDLDGVALCQCKSGYFQFNKMDHSCRACEDGYRLENETCMSCPFGLGGLNCGNPYQLITVVIAAAGGGLLLILGIALIVTCCRKNKNDISKLIFKSGDFQMSPYAEYPKNPRSQEWGREAIEMHENGSTKNLLQMTDVYYSPTSVRNPELERNGLYPAYTGLPGSRHSCIFPGQYNPSFISDESRRRDYF [HEG1] | 98.5% | 96% |
| MASTTSTKKMMEEATCSICLSLMTNPVSINCGHSYCHLCITDFFKNPSQKQLRQETFCCPQCRAPFHMDSLRPNKQLGSLIEALKETDQEMSCEEHGEQFHLFCEDEGQLICWRCERAPQHKGHTTALVEDVCQGYKEKLQKAVTKLKQLEDRCTEQKLSTAMRITKWKEKVQIQRQKIRSDFKNLQCFLHEEEKSYLWRLEKEEQQTLSRLRDYEAGLGLKSNELKSHILELEEKCQGSAQKLLQNVNDTLSRSWAVKLETSEAVSLELHTMCNVSKLYFDVKKMLRSHQVSVTLDPDTAHHELILSEDRRQVTRGYTQENQDTSSRRFTAFPCVLGCEGFTSGRRYFEVDVGEGTGWDLGVCMENVQRGTGMKQEPQSGFWTLRLCKKKGYVALTSPPTSLHLHEQPLLVGIFLDYEAGVVSFYNGNTGCHIFTFPKASFSDTLRPYFQVYQYSPLFLPPPGD [TRIM38] | 98.4% | 96.4% |
| MASVAVDPQPSVVTRVVNLPLVSSTYDLMSSAYLSTKDQYPYLKSVCEMAENGVKTITSVAMTSALPIIQKLEPQIAVANTYACKGLDRIEERLPILNQPSTQIVANAKGAVTGAKDAVTTTVTGAKDSVASTITGVMDKTKGAVTGSVEKTKSVVSGSINTVLGSRMMQLVSSGVENALTKSELLVEQYLPLTEEELEKEAKKVEGFDLVQKPSYYVRLGSLSTKLHSRAYQQALSRVKEAKQKSQQTISQLHSTVHLIEFARKNVYSANQKIQDAQDKLYLSWVEWKRSIGYDDTDESHCAEHIESRTLAIARNLTQQLQTTCHTLLSNIQGVPQNIQDQAKHMGVMAGDIYSVFRNAASFKEVSDSLLTSSKGQLQKMKESLDDVMDYLVNNTPLNWLVGPFYPQLTESQNAQDQGAEMDKSSQETQRSEHKTH [ADFP] | 95.7% | 82% |
| MASVIPASNRSMRSDRNTYVGKRFVHVKNPYLDLMDEDILYHLDLGTKTHNLPAMFGDVKFVCVGGSPNRMKAFALFMHKELGFEEAEEDIKDICAGTDRYCMYKTGPVLAISHGMGIPSISIMLHELIKLLHHARCCDVTIIRIGTSGGIGIAPGTVVITDIAVDSFFKPRFEQVILDNIVTRSTELDKELSEELFNCSKEIPNFPTLVGHTMCTYDFYEGQGRLDGALCSFSREKKLDYLKRAFKAGVRNIEMESTVFAAMCGLCGLKAAVVCVTLLDRLDCDQINLPHDVLVEYQQRPQLLISNFIRRRLGLCD [UPP2] | 92.5% | 70.6% |
| MATAPSYPAGLPGSPGPGSPPPPGGLELQSPPPLLPQIPAPGSGVSFHIQIGLTREFVLLPAASELAHVKQLACSIVDQKFPECGFYGLYDKILLFKHDPTSANLLQLVRSSGDIQEGDLVEVVLSASATFEDFQIRPHALTVHSYRAPAFCDHCGEMLFGLVRQGLKCDGCGLNYHKRCAFSIPNNCSGARKRRLSSTSLASGHSVRLGTSESLPCTAEELSRSTTELLPRRPPSSSSSSSASSYTGRPIELDKMLLSKVKVPHTFLIHSYTRPTVCQACKKLLKGLFRQGLQCKDCKFNCHKRCATRVPNDCLGEALINGDVPMEEATDFSEADKSALMDESEDSGVIPGSHSENALHASEEEEGEGGKAQSSLGYIPLMRVVQSVRHTTRKSSTTLREGWVVHYSNKDTLRKRHYWRLDCKCITLFQNNTTNRYYKEIPLSEILTVESAQNFSLVPPGTNPHCFEIVTANATYFVGEMPGGTPGGPSGQGAEAARGWETAIRQALMPVILQDAPSAPGHAPHRQASLSISVSNSQIQENVDIATVYQIFPDEVLGSGQFGVVYGGKHRKTGRDVAVKVIDKLRFPTKQESQLRNEVAILQSLRHPGIVNLECMFETPEKVFVVMEKLHGDMLEMILSSEKGRLPERLTKFLITQILVALRHLHFKNIVHCDLKPENVLLASADPFPQVKLCDFGFARIIGEKSFRRSVVGTPAYLAPEVLLNQGYNRSLDMWSVGVIMYVSLSGTFPFNEDEDINDQIQNAAFMYPASPWSHISAGAIDLINNLLQVKMRKRYSVDKSLSHPWLQEYQTWLDLRELEGKMGERYITHESDDARWEQFAAEHPLPGSGLPTDRDLGGACPPQDHDMQGLAERISVL [PRKD2] | 98.7% | 98.3% |
| MATERSRSAMDSPVPASMFAPEPSSPGAARAAAAAARLHGGFDSDCSEDGEALNGEPELDLTSKLVLVSPTSEQYDSLLRQMWERMDEGCGETIYVIGQGSDGTEYGLSEADMEASYATVKSMAEQIEADVILLRERQEAGGRVRDYLVRKRVGDNDFLEVRVAVVGNVDAGKSTLLGVLTHGELDNGRGFARQKLFRHKHEIESGRTSSVGNDILGFDSEGNVVNKPDSHGGSLEWTKICEKSTKVITFIDLAGHEKYLKTTVFGMTGHLPDFCMLMVGSNAGIVGMTKEHLGLALALNVPVFVVVTKIDMCPANILQETLKLLQRLLKSPGCRKIPVLVQSKDDVIVTASNFSSERMCPIFQISNVTGENLDLLKMFLNLLSPRTSYREEEPAEFQIDDTYSVPGVGTVVSGTTLRGLIKLNDTLLLGPDPLGNFLSIAVKSIHRKRMPVKEVRGGQTASFALKKIKRSSIRKGMVMVSPRLNPQASWEFEAEILVLHHPTTISPRYQAMVHCGSIRQTATILSMDKDCLRTGDKATVHFRFIKTPEYLHIDQRLVFREGRTKAVGTITKLLQTTNNSPMNSKPQQIKMQSTKKGPLTKRDEGGPSGGPAVGAPPPGDEASSVGAGQPAASSNLQPQPKPSSGGRRRGGQRHKVKSQGACVTPASGC [GTPBP1] | 97.3% | 83.2% |
